PubChem BioAssay AID1259424, University of Nebraska Medical Center, 2018

Assay: 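Rank knockdowns across the genome by resemblance to the KSR1 depletion profile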 (primary screen)
Cell system: human HCT116 colon cancer cells
Reagent: siRNA pool against human genes, 50 nM
Measured: 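Six signature mRNAs by branched-DNA multiplex assay, scaled to two housekeeping genes and non-targeting median, log2; matched to mean KSR1 knockdown profile by Pearson correlation and euclidean distance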
Scale: mean correlation with KSR1 profile: higher = expression change more like KSR1 knockdown
In all, the deposit lists about 14,000 reagents; below is a part drawn at random. 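Higher correlation or smaller distance means closer resemblance to KSR1 loss; control wells, including KSR1 knockdowns, recur on many plates.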 Reagents against one gene are numbered here. Further read-outs or replicates are left out here. No sequences are given here. Not given: the time to read-out.

mean correlation with KSR1 profile, by target gene and reagent
MRAP (GeneID 56246): #1 0.666
EPB41L3 (GeneID 23136): #1 -0.176
COBLL1 (GeneID 22837): #1 -0.454
TPPP3 (GeneID 51673): #1 -0.217
YY1 (GeneID 7528): #1 -0.452
ACAN (GeneID 176): #1 0.245
WDR44 (GeneID 54521): #1 -0.311
MAP4 (GeneID 4134): #1 0.063
ADAM33 (GeneID 80332): #1 -0.671
ICAM1 (GeneID 3383): #1 0.000642
SH3TC1 (GeneID 54436): #1 -0.151
TUSC2 (GeneID 11334): #1 0.191
TPT1P8 (GeneID 59347): #1 -0.527
LMO7 (GeneID 4008): #1 0.0403
NFATC2 (GeneID 4773): #1 0.656
CDCA8 (GeneID 55143): #1 -0.395
DNAJC10 (GeneID 54431): #1 -0.532
F2RL1 (GeneID 2150): #1 0.653
HPS3 (GeneID 84343): #1 -0.303
STK36 (GeneID 27148): #1 0.289
MTMR10 (GeneID 54893): #1 -0.849
CETN2 (GeneID 1069): #1 -0.351
LIMD1 (GeneID 8994): #1 0.432
RFX7 (GeneID 64864): #1 0.131
PRPH2 (GeneID 5961): #1 0.535
KIF3A (GeneID 11127): #1 -0.34
MTARC1 (GeneID 64757): #1 -0.539
AURKA (GeneID 6790): #1 0.0347
AGGF1 (GeneID 55109): #1 0.304
GABRG3 (GeneID 2567): #1 0.00446
SNTB1 (GeneID 6641): #1 0.465
IER2 (GeneID 9592): #1 0.0724
VAMP1 (GeneID 6843): #1 0.111
CD3G (GeneID 917): #1 -0.294
DDX52 (GeneID 11056): #1 -0.76
H4C5 (GeneID 8367): #1 -0.0445
PQBP1 (GeneID 10084): #1 0.157
ROR1 (GeneID 4919): #1 0.437
H3-3B (GeneID 3021): #1 0.773
CWH43 (GeneID 80157): #1 0.685
PAEP (GeneID 5047): #1 0.204
RAD51C (GeneID 5889): #1 0.512
SEH1L (GeneID 81929): #1 0.128
SOAT1 (GeneID 6646): #1 0.0216
HOXA9 (GeneID 3205): #1 0.465
GZMM (GeneID 3004): #1 -0.54
PCP4 (GeneID 5121): #1 -0.315
FDPSP3 (GeneID 2227): #1 -0.0764
CPLX2 (GeneID 10814): #1 -0.442; #2 -0.45
